In the supplement of paper PMC10849652:
The list shows a part of the results.

Protein sequences, listed by entry. Tags and fused reporters are not part of them. Lines headed by an entry give the natural chain unless they say otherwise; changes in a name come on top.
UniProt Q96CD2: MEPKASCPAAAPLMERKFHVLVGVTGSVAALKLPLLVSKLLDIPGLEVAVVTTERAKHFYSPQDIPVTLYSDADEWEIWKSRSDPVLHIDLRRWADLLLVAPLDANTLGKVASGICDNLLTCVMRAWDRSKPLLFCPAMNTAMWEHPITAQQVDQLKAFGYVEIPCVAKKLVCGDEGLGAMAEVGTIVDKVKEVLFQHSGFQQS
UniProt O95602, whole entry, looked up: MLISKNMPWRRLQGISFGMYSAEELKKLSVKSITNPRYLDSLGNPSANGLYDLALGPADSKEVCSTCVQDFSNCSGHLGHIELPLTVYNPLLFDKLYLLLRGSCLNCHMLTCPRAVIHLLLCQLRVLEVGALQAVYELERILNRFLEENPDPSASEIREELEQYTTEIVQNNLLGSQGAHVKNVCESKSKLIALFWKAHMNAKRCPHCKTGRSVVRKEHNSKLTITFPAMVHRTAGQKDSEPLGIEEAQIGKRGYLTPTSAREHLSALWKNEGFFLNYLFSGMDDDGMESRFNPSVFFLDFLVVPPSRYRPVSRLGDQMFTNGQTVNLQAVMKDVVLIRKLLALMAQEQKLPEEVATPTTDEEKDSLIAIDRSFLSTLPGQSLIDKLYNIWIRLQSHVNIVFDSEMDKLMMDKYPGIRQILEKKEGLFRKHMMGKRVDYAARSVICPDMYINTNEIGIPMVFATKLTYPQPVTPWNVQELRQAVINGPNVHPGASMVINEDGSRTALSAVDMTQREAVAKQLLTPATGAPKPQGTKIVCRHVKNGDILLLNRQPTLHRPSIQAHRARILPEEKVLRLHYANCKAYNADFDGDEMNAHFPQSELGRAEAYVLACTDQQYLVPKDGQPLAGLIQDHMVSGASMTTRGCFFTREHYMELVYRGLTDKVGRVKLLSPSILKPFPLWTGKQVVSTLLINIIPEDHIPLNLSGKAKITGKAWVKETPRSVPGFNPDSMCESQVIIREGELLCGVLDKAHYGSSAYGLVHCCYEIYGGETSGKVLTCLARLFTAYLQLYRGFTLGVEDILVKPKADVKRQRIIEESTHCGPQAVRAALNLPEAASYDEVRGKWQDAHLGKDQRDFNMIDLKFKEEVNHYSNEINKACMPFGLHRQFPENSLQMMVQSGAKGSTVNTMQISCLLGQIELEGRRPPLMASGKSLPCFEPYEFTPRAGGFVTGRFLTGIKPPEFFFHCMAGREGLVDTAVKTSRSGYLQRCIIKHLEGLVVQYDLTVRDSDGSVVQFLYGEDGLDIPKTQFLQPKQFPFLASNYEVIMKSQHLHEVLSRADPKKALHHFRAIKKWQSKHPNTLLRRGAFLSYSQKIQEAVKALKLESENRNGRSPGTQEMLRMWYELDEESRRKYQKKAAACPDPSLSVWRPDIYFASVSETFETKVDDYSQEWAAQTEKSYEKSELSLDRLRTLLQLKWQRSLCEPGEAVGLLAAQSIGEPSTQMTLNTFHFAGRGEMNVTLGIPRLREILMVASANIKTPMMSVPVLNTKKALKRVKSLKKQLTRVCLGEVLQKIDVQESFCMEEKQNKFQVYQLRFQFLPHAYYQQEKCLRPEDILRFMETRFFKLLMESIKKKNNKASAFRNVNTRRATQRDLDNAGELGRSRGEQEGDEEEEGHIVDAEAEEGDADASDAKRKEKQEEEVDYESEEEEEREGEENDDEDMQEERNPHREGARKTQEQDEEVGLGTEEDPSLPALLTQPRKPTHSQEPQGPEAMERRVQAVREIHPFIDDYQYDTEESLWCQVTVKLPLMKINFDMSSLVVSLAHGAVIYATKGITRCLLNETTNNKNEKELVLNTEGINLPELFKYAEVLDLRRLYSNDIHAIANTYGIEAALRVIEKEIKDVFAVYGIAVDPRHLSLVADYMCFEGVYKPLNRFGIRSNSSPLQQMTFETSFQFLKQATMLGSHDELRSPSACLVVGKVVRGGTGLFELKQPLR
UniProt Q9NVS9: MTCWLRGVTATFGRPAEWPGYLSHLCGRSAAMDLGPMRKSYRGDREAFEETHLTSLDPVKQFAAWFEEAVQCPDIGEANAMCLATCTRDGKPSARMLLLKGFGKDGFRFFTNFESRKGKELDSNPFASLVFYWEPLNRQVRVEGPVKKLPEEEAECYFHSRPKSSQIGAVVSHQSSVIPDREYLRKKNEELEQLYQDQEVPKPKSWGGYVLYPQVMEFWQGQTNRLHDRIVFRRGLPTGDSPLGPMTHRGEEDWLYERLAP
UniProt Q15054: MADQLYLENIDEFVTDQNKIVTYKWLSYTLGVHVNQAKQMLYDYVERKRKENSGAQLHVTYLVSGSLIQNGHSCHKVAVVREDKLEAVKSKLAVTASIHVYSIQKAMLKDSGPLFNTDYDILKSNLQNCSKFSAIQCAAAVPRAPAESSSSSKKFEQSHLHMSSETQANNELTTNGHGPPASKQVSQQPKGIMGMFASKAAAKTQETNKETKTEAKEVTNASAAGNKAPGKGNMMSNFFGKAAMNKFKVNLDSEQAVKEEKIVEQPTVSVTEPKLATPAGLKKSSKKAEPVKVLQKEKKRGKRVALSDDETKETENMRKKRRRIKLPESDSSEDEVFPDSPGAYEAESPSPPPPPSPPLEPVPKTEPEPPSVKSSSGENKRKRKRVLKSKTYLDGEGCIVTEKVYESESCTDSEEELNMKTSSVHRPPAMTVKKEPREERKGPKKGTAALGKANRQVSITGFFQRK
UniProt P45877: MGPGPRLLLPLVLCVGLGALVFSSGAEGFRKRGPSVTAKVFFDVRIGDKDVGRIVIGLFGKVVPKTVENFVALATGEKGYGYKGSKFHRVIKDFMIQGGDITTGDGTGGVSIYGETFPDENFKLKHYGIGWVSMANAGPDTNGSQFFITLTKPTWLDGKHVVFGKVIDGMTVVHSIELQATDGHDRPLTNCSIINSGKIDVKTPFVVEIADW
UniProt Q9NZ53: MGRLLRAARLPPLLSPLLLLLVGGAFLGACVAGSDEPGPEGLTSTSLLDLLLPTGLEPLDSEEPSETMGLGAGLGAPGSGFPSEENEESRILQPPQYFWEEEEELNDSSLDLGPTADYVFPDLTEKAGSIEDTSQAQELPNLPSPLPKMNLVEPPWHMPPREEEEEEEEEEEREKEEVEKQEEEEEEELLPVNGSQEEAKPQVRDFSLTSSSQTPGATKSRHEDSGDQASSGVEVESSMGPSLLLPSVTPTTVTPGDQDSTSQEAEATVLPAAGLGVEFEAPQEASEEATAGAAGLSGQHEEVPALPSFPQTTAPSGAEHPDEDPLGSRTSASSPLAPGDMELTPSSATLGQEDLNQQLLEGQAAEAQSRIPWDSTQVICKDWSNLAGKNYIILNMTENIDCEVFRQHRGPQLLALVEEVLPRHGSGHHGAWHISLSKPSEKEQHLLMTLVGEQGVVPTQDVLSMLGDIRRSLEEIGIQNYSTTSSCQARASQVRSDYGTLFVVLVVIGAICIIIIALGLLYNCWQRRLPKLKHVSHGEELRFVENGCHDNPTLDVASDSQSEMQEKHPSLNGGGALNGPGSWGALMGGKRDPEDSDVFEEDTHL
UniProt Q9Y2G5: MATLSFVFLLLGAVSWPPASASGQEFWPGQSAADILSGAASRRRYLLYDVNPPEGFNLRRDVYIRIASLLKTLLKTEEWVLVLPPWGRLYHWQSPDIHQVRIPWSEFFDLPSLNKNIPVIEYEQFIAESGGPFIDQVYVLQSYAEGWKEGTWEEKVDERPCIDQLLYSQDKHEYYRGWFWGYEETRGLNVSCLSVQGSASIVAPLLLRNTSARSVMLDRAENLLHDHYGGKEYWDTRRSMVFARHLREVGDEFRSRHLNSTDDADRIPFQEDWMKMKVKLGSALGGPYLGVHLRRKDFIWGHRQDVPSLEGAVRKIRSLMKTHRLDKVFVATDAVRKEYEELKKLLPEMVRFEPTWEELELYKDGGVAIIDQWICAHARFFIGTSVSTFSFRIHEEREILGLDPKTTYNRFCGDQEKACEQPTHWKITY
UniProt Q9UNP9: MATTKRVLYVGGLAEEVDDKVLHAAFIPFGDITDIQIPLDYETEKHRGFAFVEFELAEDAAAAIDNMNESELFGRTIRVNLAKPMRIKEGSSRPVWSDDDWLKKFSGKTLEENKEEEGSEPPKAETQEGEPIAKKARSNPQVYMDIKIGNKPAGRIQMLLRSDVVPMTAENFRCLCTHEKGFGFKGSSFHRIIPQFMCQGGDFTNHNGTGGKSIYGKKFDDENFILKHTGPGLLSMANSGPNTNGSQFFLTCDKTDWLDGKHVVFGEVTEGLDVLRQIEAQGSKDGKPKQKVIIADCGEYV
UniProt Q8NAT1: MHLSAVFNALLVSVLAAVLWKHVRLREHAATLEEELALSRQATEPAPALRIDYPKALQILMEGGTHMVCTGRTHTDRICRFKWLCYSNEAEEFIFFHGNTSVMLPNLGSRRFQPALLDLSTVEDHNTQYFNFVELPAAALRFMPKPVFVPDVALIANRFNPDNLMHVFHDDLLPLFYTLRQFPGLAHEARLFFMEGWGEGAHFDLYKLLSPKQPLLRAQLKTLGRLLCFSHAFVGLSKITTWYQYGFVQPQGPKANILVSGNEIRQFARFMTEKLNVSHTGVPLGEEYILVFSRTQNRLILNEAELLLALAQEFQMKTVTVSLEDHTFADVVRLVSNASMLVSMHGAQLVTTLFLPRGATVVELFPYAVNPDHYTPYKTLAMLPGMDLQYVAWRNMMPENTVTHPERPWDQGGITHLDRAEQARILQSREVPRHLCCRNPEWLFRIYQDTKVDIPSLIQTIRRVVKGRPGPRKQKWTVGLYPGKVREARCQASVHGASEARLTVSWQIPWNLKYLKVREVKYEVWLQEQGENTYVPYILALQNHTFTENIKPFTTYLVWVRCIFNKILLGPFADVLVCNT
UniProt O75439: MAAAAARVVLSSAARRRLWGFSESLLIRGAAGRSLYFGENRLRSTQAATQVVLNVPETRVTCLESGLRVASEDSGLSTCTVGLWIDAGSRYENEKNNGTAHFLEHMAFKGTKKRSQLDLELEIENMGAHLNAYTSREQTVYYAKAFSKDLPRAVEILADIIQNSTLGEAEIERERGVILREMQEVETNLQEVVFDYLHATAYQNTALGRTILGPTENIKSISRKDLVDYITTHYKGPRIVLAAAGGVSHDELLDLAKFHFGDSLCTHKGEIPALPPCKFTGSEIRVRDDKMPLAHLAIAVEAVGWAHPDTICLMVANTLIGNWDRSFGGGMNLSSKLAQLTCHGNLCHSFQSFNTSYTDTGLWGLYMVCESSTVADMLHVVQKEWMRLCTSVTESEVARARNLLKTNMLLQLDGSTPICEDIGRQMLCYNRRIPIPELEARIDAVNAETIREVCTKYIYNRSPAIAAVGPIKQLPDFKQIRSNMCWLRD
UniProt Q6P1K2: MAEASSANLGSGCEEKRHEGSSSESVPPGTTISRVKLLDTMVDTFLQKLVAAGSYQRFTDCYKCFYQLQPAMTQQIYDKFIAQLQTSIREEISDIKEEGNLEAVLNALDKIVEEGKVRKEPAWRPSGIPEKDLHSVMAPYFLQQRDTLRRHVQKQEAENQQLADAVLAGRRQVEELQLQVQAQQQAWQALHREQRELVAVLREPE
UniProt Q9UHN1: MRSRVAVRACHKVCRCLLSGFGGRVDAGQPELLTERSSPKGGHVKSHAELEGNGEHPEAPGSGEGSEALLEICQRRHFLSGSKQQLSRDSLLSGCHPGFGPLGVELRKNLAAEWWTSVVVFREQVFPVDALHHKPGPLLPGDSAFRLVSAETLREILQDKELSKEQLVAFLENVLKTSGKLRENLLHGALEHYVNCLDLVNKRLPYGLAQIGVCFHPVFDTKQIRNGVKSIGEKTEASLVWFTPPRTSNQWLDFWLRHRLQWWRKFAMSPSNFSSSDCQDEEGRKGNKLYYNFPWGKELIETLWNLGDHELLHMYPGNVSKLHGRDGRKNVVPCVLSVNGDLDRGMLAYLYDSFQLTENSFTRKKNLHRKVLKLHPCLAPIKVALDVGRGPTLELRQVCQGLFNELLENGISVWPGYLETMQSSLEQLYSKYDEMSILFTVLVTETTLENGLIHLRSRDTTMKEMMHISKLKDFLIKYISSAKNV
POU6F1, A0A1C7CYV8, UniProt A0A1C7CYV8, whole entry, looked up: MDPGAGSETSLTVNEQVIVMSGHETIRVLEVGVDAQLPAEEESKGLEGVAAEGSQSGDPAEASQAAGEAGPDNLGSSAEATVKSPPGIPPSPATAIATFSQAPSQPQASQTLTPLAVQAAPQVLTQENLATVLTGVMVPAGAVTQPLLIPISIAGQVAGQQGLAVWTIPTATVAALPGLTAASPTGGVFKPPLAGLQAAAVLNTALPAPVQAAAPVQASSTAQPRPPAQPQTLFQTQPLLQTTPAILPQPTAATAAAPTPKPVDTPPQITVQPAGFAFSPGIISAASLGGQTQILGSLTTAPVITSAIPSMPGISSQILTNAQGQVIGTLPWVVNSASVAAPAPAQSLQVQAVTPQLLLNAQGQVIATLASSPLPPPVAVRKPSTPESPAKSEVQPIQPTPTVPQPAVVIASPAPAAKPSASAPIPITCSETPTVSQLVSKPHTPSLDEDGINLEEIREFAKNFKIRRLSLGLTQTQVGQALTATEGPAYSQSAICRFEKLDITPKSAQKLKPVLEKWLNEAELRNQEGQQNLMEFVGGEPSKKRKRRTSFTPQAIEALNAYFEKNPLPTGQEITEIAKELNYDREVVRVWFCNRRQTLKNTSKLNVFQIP

How the values were obtained:
Assay in all cases: log2 fold change, soluble protein after heating vs DMSO (PISA); higher = thermal stabilisation; K562 lysate, 10 uM; active = over 0.2 and 3.5 SD of the protein, either way, in both replicates (recomputed)
alvocidib = compound: CN1CC[C@H](c2c(O)cc(O)c3c(=O)cc(-c4ccccc4Cl)oc23)[C@H](O)C1 [alvocidib]
How it was run: (§1)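 To prepare the extract, K562 pellets were dounce-homogenised in PBS pH 7.4 with 1 mM MgCl2, giving crude material at 1 mg/mL protein. This was treated with 10 μM compound for 30 min, then heated in aliquots for 3 min over 48°C-58°C before pooling and addition of NP-40 to 0.5% at 4°C. Centrifugation at 21,000xg for 90 min left soluble protein in the supernatant, which TMTpro 16plex LC-MS/MS quantified with equalised channel sums. Results are log-two fold changes in thermal stability compared with solvent controls, from duplicates.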

Tubastatin A = compound: CN1CCc2c(c3ccccc3n2Cc2ccc(C(=O)NO)cc2)C1 [Tubastatin A]
How it was run: as §1

[1] = compound: CNC(=O)C1=CC=CC=C1NC2=NC(=NC=C2Cl)NC3=C(C=C(C=C3)N4CCOCC4)OC
How it was run: as §1

defactinib = compound: CNC(=O)c1ccc(Nc2ncc(C(F)(F)F)c(NCc3nccnc3N(C)S(C)(=O)=O)n2)cc1 [defactinib]
How it was run: as §1

[2] = compound: CNc1nc(-c2ccc3c(N)n[nH]c3c2)cc(N2C[C@@H](C(=O)NC3CCCCC3)CC[C@H]2C)n1
How it was run: as §1

encorafenib = compound: COC(=O)N[C@@H](C)CNc1nccc(-c2cn(C(C)C)nc2-c2cc(Cl)cc(NS(C)(=O)=O)c2F)n1 [encorafenib]
How it was run: as §1

[3] = compound: COC(=O)[C@H](CCSC)NC(=O)C1=C(C=C(C=C1)NC[C@H](CS)N)C2=CC=CC=C2
How it was run: as §1

alisertib = compound: COc1cc(Nc2ncc3c(n2)-c2ccc(Cl)cc2C(c2c(F)cccc2OC)=NC3)ccc1C(=O)O [alisertib]
How it was run: as §1

[4] = compound: COc1cc2nc(-c3cc(F)ccc3O)nc(N[C@@H]3CNC[C@H]3C(C)(C)O)c2cc1OC
How it was run: as §1

gefitinib = compound: COc1cc2ncnc(Nc3ccc(F)c(Cl)c3)c2cc1OCCCN1CCOCC1 [gefitinib]
How it was run: as §1

Measured: log2 fold change

POLR1E (UniProt Q9GZS1)
inactive: alvocidib 0.029 | Tubastatin A -0.087 | [1] 0.026 | defactinib -0.046 | [2] 0.029 | encorafenib 0.049 | [3] 0.102 | alisertib 0 | [4] -0.005 | gefitinib 0.014

PML (UniProt P29590)
inactive: alvocidib -0.039 | Tubastatin A -0.003 | [1] 0.024 | defactinib -0.036 | [2] 0.033 | encorafenib 0.008 | [3] -0.071 | alisertib 0.011 | [4] 0.014 | gefitinib 0.034

POLR2I (UniProt P36954)
inactive: alvocidib 0.108 | Tubastatin A 0.064 | [1] 0.052 | defactinib 0.045 | [2] -0.018 | alisertib -0.034 | [4] 0.03 | gefitinib -0.322

PMS1 (UniProt P54277)
inactive: alvocidib -0.038 | Tubastatin A -0.046 | [1] -0.008 | defactinib 0 | [2] -0.039 | encorafenib 0.046 | [3] 0.022 | alisertib -0.01 | gefitinib 0.049

PPCDC (UniProt Q96CD2)
inactive: alvocidib -0.08 | Tubastatin A 0.034 | [1] -0.053 | defactinib -0.037 | [2] -0.054 | encorafenib -0.082 | [3] -0.027 | alisertib -0.051 | [4] 0.032 | gefitinib 0.028

POLR2D (UniProt O15514)
inactive: alvocidib -0.009 | Tubastatin A 0.05 | [1] 0.01 | defactinib -0.048 | [2] 0.026 | encorafenib -0.041 | [3] -0.184 | alisertib 0.065 | [4] 0.046 | gefitinib -0.009

POGLUT1 (UniProt Q8NBL1)
inactive: alvocidib 0.022 | Tubastatin A -0.018 | [1] -0.05 | defactinib -0.002 | [2] -0.083 | encorafenib 0.006 | [3] 0.02 | alisertib 0.03 | [4] -0.031 | gefitinib 0.005

POLR1A (UniProt O95602)
inactive: alvocidib -0.009 | Tubastatin A -0.026 | [1] 0.013 | defactinib -0.025 | [2] 0.147 | encorafenib -0.012 | [3] 0.157 | alisertib -0.021 | [4] 0.039 | gefitinib -0.027

POLR2G (UniProt P62487)
inactive: alvocidib -0.034 | Tubastatin A 0.012 | [1] 0.038 | defactinib 0.027 | [2] 0.019 | encorafenib 0.007 | [3] -0.032 | alisertib 0.016 | [4] 0.017 | gefitinib -0.01

PNPO (UniProt Q9NVS9)
inactive: alvocidib 0.086 | Tubastatin A -0.044 | [1] 0.057 | defactinib 0.065 | [2] -0.078 | encorafenib 0.065 | [3] -0.189 | alisertib -0.06 | [4] 0.009 | gefitinib -0.027

POLD3 (UniProt Q15054)
inactive: alvocidib 0.041 | Tubastatin A -0.032 | [1] 0.099 | defactinib -0.033 | [2] -0.03 | encorafenib 0.021 | [3] 0.048 | alisertib -0.025 | [4] 0.007 | gefitinib -0.018

PPIC (UniProt P45877)
inactive: alvocidib -0.031 | Tubastatin A 0.089 | [1] 0.024 | defactinib 0.077 | [2] -0.052 | alisertib 0.004 | gefitinib 0.103

POSTN (UniProt Q15063)
inactive: alvocidib 0.081 | Tubastatin A 0.051 | [1] 0.119 | defactinib -0.153 | encorafenib -0.031 | [3] 0.033

PODXL2 (UniProt Q9NZ53)
inactive: alvocidib -0.046 | Tubastatin A 0.021 | [1] 0.06 | defactinib 0.166 | [2] 0.019 | encorafenib 0.022 | [3] -0.018 | alisertib 0.108 | [4] -0.154 | gefitinib -0.112

POFUT2 (UniProt Q9Y2G5)
inactive: alvocidib -0.006 | Tubastatin A -0.121 | [1] 0.069 | defactinib 0.025 | [2] 0.033 | encorafenib -0.02 | [3] 0.043 | alisertib -0.001 | [4] 0.021 | gefitinib 0.003

PPIE (UniProt Q9UNP9)
inactive: alvocidib -0.131 | Tubastatin A 0.025 | [1] -0.047 | defactinib -0.018 | [2] 0.023 | encorafenib -0.025 | [3] -0.041 | alisertib -0.036 | [4] 0.005 | gefitinib 0.034

Pulled one by one from above (2):
PODXL2 (UniProt Q9NZ53)
inactive: alvocidib -0.046 | Tubastatin A 0.021 | [1] 0.06 | defactinib 0.166 | [2] 0.019 | encorafenib 0.022 | [3] -0.018 | alisertib 0.108 | [4] -0.154 | gefitinib -0.112

PPIC (UniProt P45877)
inactive: alvocidib -0.031 | Tubastatin A 0.089 | [1] 0.024 | defactinib 0.077 | [2] -0.052 | alisertib 0.004 | gefitinib 0.103

Further entries:

PLPP6 (UniProt Q8IY26)
inactive: alvocidib 0.011 | Tubastatin A 0.041 | [1] -0.05 | defactinib -0.029 | [2] 0.154 | alisertib 0.1 | gefitinib -0.028

PNISR (UniProt Q8TF01)
inactive: alvocidib -0.027 | Tubastatin A -0.03 | [1] 0.017 | defactinib 0.011 | [2] 0.065 | encorafenib 0.015 | [3] -0.021 | alisertib -0.004 | [4] -0.019 | gefitinib 0.012

POLR3D (UniProt P05423)
inactive: alvocidib -0.058 | Tubastatin A -0.029 | [1] -0.007 | defactinib 0.032 | [2] 0.139 | encorafenib 0.015 | [3] 0.032 | alisertib -0.01 | [4] 0.028 | gefitinib 0.008

PLS1 (UniProt Q14651)
inactive: alvocidib 0.015 | Tubastatin A 0.049 | [1] 0.045 | defactinib -0.004 | [2] -0.001 | encorafenib -0.007 | [3] -0.022 | alisertib -0.018 | [4] -0.007 | gefitinib 0.016

POLR2C (UniProt P19387)
inactive: alvocidib -0.032 | Tubastatin A -0.086 | [1] 0.021 | defactinib 0.015 | [2] -0.031 | encorafenib 0.049 | [3] 0.066 | alisertib -0.061 | [4] 0.013 | gefitinib 0.003

POMGNT2 (UniProt Q8NAT1)
inactive: alvocidib 0.031 | Tubastatin A 0.081 | [1] -0.002 | defactinib 0.109 | [2] 0.017 | encorafenib -0.157 | [3] 0.211 | alisertib -0.1 | [4] 0.034 | gefitinib 0.072

PMPCB (UniProt O75439)
inactive: alvocidib -0.008 | Tubastatin A 0.055 | [1] -0.034 | defactinib 0.02 | [2] -0.013 | encorafenib -0.011 | [3] 0.027 | alisertib -0.042 | [4] 0.003 | gefitinib -0.074

PLSCR1 (UniProt O15162)
inactive: alvocidib -0.036 | Tubastatin A -0.032 | [1] -0.012 | defactinib -0.009 | [2] -0.021 | encorafenib 0.055 | [3] -0.194 | alisertib 0.04 | [4] 0.059 | gefitinib -0.005

POLDIP3 (UniProt Q9BY77)
inactive: alvocidib 0.005 | Tubastatin A -0.027 | [1] 0.093 | defactinib 0.042 | [2] 0.003 | alisertib -0.035 | [4] 0.011 | gefitinib 0.023

PPFIA2 (UniProt O75334)
inactive: alvocidib -0.107 | Tubastatin A 0.021 | [1] 0.022 | defactinib -0.011 | [2] -0.026 | encorafenib -0.082 | [3] -0.029 | alisertib -0.007 | [4] 0.012 | gefitinib 0.057

PMF1 (UniProt Q6P1K2)
inactive: alvocidib 0.026 | Tubastatin A 0.04 | [1] 0.027 | defactinib 0.009 | [2] -0.017 | encorafenib 0.029 | [3] -0.007 | alisertib 0.034 | [4] -0.013 | gefitinib -0.016

POLR3C (UniProt Q9BUI4)
inactive: alvocidib 0.014 | Tubastatin A 0.017 | [1] 0.015 | defactinib 0.015 | [2] 0.011 | encorafenib 0.012 | [3] 0.034 | alisertib 0.025 | [4] 0.007 | gefitinib 0.016

POLG2 (UniProt Q9UHN1)
inactive: alvocidib 0 | Tubastatin A 0.025 | [1] 0.025 | defactinib 0.012 | [2] 0.058 | encorafenib 0.013 | [3] -0.062 | alisertib -0.033 | [4] 0.021 | gefitinib -0.099

POU6F1, A0A1C7CYV8
inactive: Tubastatin A 0.044
